Measured values from publication PMC12218279.

Molecular target: T1, PfFBOX01-HA (P. falciparum) (UniProt C6KT37)
T1 sequence: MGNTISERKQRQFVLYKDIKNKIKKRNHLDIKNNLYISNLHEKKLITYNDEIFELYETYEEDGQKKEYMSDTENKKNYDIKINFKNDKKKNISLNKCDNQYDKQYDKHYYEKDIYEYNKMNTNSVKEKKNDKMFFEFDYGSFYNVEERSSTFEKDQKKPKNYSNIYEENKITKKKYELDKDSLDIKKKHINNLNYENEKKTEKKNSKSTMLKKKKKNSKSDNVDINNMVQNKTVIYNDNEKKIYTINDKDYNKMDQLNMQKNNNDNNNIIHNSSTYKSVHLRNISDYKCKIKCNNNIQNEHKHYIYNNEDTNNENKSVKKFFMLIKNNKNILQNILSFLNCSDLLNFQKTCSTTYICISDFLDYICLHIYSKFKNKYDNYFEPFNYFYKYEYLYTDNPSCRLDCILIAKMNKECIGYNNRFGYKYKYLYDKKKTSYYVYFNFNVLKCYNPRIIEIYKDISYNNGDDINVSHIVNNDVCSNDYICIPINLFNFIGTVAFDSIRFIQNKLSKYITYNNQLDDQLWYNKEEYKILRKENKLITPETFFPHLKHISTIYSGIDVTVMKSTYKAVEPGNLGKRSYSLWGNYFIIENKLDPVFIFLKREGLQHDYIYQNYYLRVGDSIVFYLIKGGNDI
Experiment: co-IP; immunoprecipitation of PfFBOX01-HA from schizonts that also carry a C-terminally FLAG-tagged candidate substrate; immunoblot (Fig. S5 and S13)

## PF3D7_0903600.1 tagged at the C-terminus with FLAG epitopes (P. falciparum)
  binding: binds

Results are given in words; binding and its absence hold for the method and conditions named. Binding seen in cells or lysates may run through a third protein. A result given as binding can be weak or reduced; the word gives no strength. Sequences can lack the tags named with a protein.
